Earlier results, collected in US10724009B2, “Cannabichromenic acid synthase from Cannabis sativa” (priority 2014, dated 2020).
Some of these results come from one statement about several compounds together. At least one compound was matched to its structure with a doubt left.

Settings: Veress et al 1990; cited from earlier work

For `CCCCCc1cc2c(c(O)c1C(=O)O)C1C=C(C)CCC1C(C)(C)O2` (centres unmarked) [THCA, Δ^9-tetrahydrocannabinolic acid], the “temperature at which thermal decarboxylation occurs” value is listed as over 94 °C.
In the case of `C=C(C)[C@@H]1CCC(C)=C[C@H]1c1c(O)cc(CCCCC)c(C(=O)O)c1O` [CBDA, cannabidiolic acid], the “temperature at which thermal decarboxylation occurs” value is given as over 94 °C.
